Data: PubChem BioAssay AID493014 (National Center for Advancing Translational Sciences (NCATS), 2011)
Some of the results follow. Shown are side measurements of this screen, not its main read-out; they come without a call. Compounds called inactive in the main read-out are mostly missing here. The note in brackets gives the kind of curve behind each potency; many fits are weak.

Experiment: qHTS Assay to Find Inhibitors of Chronic Active B-Cell Receptor Signaling
Conditions: ABC-DLBCL IkBa-CBG/CBR reporter, luminescence ratio (green luciferase fused to IkBa over red control in TMD8 lymphoma cells), 4 h
Method in brief: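 Cell line TMD8 (human ABC DLBCL), stably expressing tet-inducible CBG68-IkBa fusion and CBR; IMDM/0.5% FBS; cpd up to 46 uM; dox induction, 4 h, 37C/5% CO2; dual luminescence; green/red ratio; MG132 control.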

[1] = measured here: CBR red luminescence, cell number
[2] = measured here: IkBa-CBG green luminescence

| SMILES | AC50 [1] | AC50 [2] |
| --- | --- | --- |
| CCCCNc1c(-c2ccc(OC)c(SC(C)CC)c2)nc2ccc(C)cn12 (stereo not given) | 29.1 µM [falling, single point] | – |
| Nc1ccc2nn(-c3ccc(Cl)cc3)nc2c1 | 15.8 µM [falling, partial curve, poor fit] | – |
| COc1ccc(-c2nc3ccccc3c(=O)o2)cc1OC | 7.08 µM [falling, full curve] | – |
| CC(Nc1ccc(Br)cc1)C(=O)N/N=C/c1ccccc1OCc1ccccc1 (stereo not given) | 32.6 µM [falling, single point] | – |
| NNc1nc(-c2ccccc2)c2cc(Cl)ccc2n1 | 4.47 µM [falling, full curve] | 5.01 µM [rising, partial curve, poor fit] |
| Cc1ccc2c(c1)NC(=O)[C@@]1(C)[C@@H](c3ccccc3)[C@H]3COc4ccccc4[C@@H]3N1C2=O | 2.31 µM [falling, full curve] | 2.06 µM [rising, full curve, poor fit] |
| O=c1c2c([nH]c3ccccc13)C(=C1CCCC1)CC2 | 2.24 µM [falling, full curve, poor fit] | – |
| O=C(Cc1cccc2ccccc12)NCCc1ccccc1 | 1.26 µM [rising, partial curve, poor fit] | – |
| CC(=O)c1ccc(NC(=O)Nc2cccc3ccccc23)cc1 | 0.251 µM [falling, full curve, poor fit] | – |
| O=C(CSc1ncccn1)N/N=C/c1ccc(OC2CSC2)cc1 | 0.708 µM [falling, full curve, poor fit] | – |
| Cc1nc(NC2=NCN(Cc3cccnc3)CN2)nc2c(C)cccc12 | 0.0184 µM [falling, full curve, poor fit] | – |
| CN(C)c1ccc(/C=N/NC(=O)c2ccc(NC(=O)c3ccccc3)cc2)cc1 | 22.4 µM [falling, partial curve, poor fit] | – |
| O=C(Nc1ccc(CN2CCCCC2)cc1)c1sc2ccccc2c1Cl | 14.1 µM [falling, single point] | – |
| Cc1nc2c(C)cccc2c2c1COC2 | 22.4 µM [rising, partial curve, poor fit] | – |
| CCCn1c(N2CCN(C(=O)Nc3ccc(Cl)cc3)CC2)nc2ccccc21 | 3.98 µM [rising, partial curve, poor fit] | – |
| CC(C1CC1)N(C(=O)NC1CCS(=O)(=O)C1)c1ccccc1 (stereo not given) | 6.31 µM [falling, partial curve, poor fit] | – |
| O=C(COc1ccc(-c2ccccc2)cc1)N1CCN(S(=O)(=O)Cc2ccccc2)CC1 | 29.1 µM [rising, single point] | 13 µM [falling, partial curve] |
| COC(=O)c1c(C)[nH]c(-c2csc(N)n2)c1C | 35.5 µM [rising, single point] | 15.8 µM [falling, single point] |
| CCSc1nnc(NC(=O)c2ccccc2C)s1 | 14.1 µM [falling, partial curve, poor fit] | – |
| COc1cc(C)c(CNc2cccc(C)c2)cc1C | 1.46 µM [rising, full curve, poor fit] | – |

| SMILES | AC50 [1] | AC50 [2] |
| --- | --- | --- |
| CCCC[C@@H](CN[C@H](C)CNC)NCC1CCC(C(C)(C)C)CC1 (stereo not given in full) | 11.2 µM [falling, partial curve, poor fit] | – |
| CCCc1cc(NC(=O)COC(=O)c2ccc(O)cc2O)n(-c2ccccc2)n1 | 4.11 µM [falling, single point] | – |
| CC(C)(C)C1CCC(OC(=O)CN2CCOCC2)CC1 (stereo not given) | 0.116 µM [falling, full curve, poor fit] | – |
| COc1ccc(CNC(=O)Cn2nc([N+](=O)[O-])cc2C)cc1 | 0.316 µM [rising, full curve, poor fit] | – |
| O=S(=O)(NC1CCCC1)c1cc(F)ccc1F | 22.4 µM [rising, partial curve, poor fit] | – |
| O=C(N/N=C/c1ccc2cccc(OCc3ccccc3)c2n1)c1ccc(Br)cc1 | 7.08 µM [falling, partial curve] | – |
| Cc1ccc(S(=O)(=O)N2CCCCC2)cc1NC(=O)CCN1C(=O)C2CC=CCC2C1=O (stereo not given) | 29.1 µM [rising, single point] | – |
| Cc1ccc(CNC(=O)Cn2nnc(C(=O)Nc3cccc(C)c3C)c2N)cc1 | 7.08 µM [rising, full curve, poor fit] | – |
| CN(CCO)CCOCCOc1cccc2ccccc12 | 35.5 µM [falling, single point] | – |
| CCC(C)[C@H](NC(=O)NC1CC1)C(=O)O (stereo not given in full) | 35.5 µM [falling, single point] | – |
| COc1ccccc1-c1nnc2n1N=C(C(C)(C)C)CS2 | 29.1 µM [rising, single point] | – |
| Cc1cc2ncn(/N=C/c3ccc([N+](=O)[O-])s3)c2cc1C | 3.26 µM [rising, partial curve] | – |
| C=CCN(CC=C)C(=S)NC(=O)c1ccc(OC)cc1 | 6.31 µM [rising, partial curve] | 11.2 µM [falling, partial curve] |
| COCCNC(=O)c1cc(-c2ccccc2C)n(CC2CC(c3cccc([N+](=O)[O-])c3)=NO2)n1 (stereo not given) | 29.1 µM [falling, single point] | – |
| COc1cccc(-c2nc(CS(=O)(=O)CC(=O)NCCCN3CC(C)CC(C)C3)c(C)o2)c1 (stereo not given) | 25.1 µM [falling, single point] | – |
| CC(C)c1ccc(C(=O)CSc2ncn[nH]2)cc1 | 28.2 µM [falling, single point] | – |
| Clc1ccc(OCCSc2ncccn2)c(Br)c1 | 2.51 µM [rising, partial curve] | – |
| Cc1cccc(NC(=S)NCCc2ccccn2)c1 | 12.6 µM [rising, partial curve, poor fit] | – |
| Cc1ccc(-c2csc(NC(=O)CN3CC(C)OC(C)C3)n2)cc1 (stereo not given) | 15.8 µM [falling, single point] | – |
| C=CCN=C1S/C(=C\c2ccc(N(C)C)cc2)C(=O)N1CC=C | 2 µM [rising, partial curve, poor fit] | – |

Gathered by group: those above with two or more sulfur atoms (2)

| SMILES | AC50 [1] | AC50 [2] |
| --- | --- | --- |
| O=C(CSc1ncccn1)N/N=C/c1ccc(OC2CSC2)cc1 | 0.708 µM [falling, full curve, poor fit] | – |
| CCSc1nnc(NC(=O)c2ccccc2C)s1 | 14.1 µM [falling, partial curve, poor fit] | – |
